Data as given in US20130217592A1, “ARRAYS AND METHODS COMPRISING M. SMITHII GENE PRODUCTS” (THE WASHINGTON UNIVERSITY, priority 2007, published 2013).
Values joined by “and” are separate entries in the source; they are usually repeats but may differ in a detail not shown here. Identical values can stand only once.

Key:
[1] = system: M. smithii strain PS; assay: Statin susceptibility, M. smithii strain PS (Table 16, FIG. 10), average optical density (600 nm); type: cell-based, Methanobrevibacter smithii; conditions: statin 100 μM, successive unlabelled time points
Procedure: (§1) A system for culturing M. smithii in 96-well plate format was designed and constructed in the following manner (See FIG. 15). Three stainless steel paint canisters (Binks, 83S-210, 2 gallon size) were modified for incubation of plates at 37° C. in an oxygen-free gas mix of 20% CO2/80% H2 at a pressure of 30 psi, where all of these growth parameters can be monitored and recorded. […]
(§2) The system is pressurized with oxygen-free gas that has flowed through a custom-built oxygen scrub. […] Pressure in each tank is measured and recorded with a digital manometer (LEO record, Omni Instruments).
(§3) The system is housed inside an anaerobic chamber (COY laboratories) to allow inspection and manipulation of cultures and plates without exposing M. smithii to oxygen. Each tank can house 30 standard volume 96-well plates, which can be analyzed inside the COY anaerobic chamber with a microplate reader (BioRad) that monitors growth by measuring optical density.
(§4) 1.5 μl of the stock solutions were added to wells in 96-well plates and transferred to the COY anaerobic chamber where they were kept for at least 24 hours to become anaerobic. […] Growth was measured by determining optical density at 600 nm using the BioRad microplate reader (model 680). […]

[2] = system: M. smithii strain F1; assay: Statin susceptibility, M. smithii strain F1 (Table 17, FIG. 11), average optical density (600 nm); type: cell-based, Methanobrevibacter smithii; conditions: statin 100 μM, successive unlabelled time points
Procedure: as §1, §2, §3, §4

## CC(C)c1c(C(=O)Nc2ccccc2)c(-c2ccccc2)c(-c2ccc(F)cc2)n1CC[C@@H](O)C[C@@H](O)CC(=O)O [atorvastatin]
[1]
  average optical density (600 nm), standard deviation: 0.031 (0.006) and 0.03 (0.007) and 0.033 (0.007) and 0.033 (0.002) and 0.024 (0.007) and 0.032 (0.003) and 0.032 (0.007)
[2]
  average optical density (600 nm), standard deviation: 0.018 (0.002) and 0.018 (0.003) and 0.016 (0.002) and 0.015 (0.001) and 0.01 (0) and 0.018 (0.001)
